Primary screen of a compound library

Chains of the proteins cited; added tags and fusions are not shown.
UniProt E9BF75, entry or part of it: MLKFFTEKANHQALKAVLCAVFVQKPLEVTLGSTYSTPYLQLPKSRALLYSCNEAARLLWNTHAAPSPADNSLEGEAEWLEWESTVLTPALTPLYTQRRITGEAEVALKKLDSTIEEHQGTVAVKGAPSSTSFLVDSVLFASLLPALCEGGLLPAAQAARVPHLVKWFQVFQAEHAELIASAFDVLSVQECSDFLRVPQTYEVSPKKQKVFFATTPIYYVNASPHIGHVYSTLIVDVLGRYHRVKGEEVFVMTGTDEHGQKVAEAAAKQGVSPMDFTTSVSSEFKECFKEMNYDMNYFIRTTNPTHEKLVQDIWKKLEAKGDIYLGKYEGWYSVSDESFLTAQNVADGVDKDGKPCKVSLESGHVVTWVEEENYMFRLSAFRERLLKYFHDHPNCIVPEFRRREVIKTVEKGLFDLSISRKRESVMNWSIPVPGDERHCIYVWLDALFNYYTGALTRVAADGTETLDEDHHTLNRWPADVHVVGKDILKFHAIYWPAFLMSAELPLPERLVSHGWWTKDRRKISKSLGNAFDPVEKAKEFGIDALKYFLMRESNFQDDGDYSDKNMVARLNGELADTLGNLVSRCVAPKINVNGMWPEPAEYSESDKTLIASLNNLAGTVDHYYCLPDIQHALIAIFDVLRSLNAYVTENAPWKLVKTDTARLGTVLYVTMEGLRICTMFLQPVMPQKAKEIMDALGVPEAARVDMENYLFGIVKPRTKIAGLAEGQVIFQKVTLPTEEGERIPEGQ

Measurements from “University of Dundee, Small-Polar-MMV Screening Library” (2021), ChEMBL document CHEMBL3988442.

Mtb heat-shock: 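Assay on Mycobacterium tuberculosis, filed only as a heat shock assay from Cornell; the read-out is not stated. The concentration is filed as 10 mM, unlikely as a test dose, so the dose is not known. Higher reads as stronger inhibition (inferred: compounds with an IC50 in retests scored well above the rest). Of about 69,000 compounds tested this way, about 930 (1.4%) reached 50% or more in at least one test.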
Mtb growth Cornell: 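Whole-cell assay for inhibitors of Mycobacterium tuberculosis growth, labelled Cornell in the record; the read-out is not stated. The concentration is filed as 10 mM, unlikely as a test dose, so the dose is not known. Higher means stronger inhibition (inferred from two other growth screens of the library). Size under these conditions: about 53,000 compounds, about 900 of them at 50% or above in at least one test.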
LdMetRS: 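Primary screen of methionyl-tRNA synthetase; the read-out is not stated. Target: Methionyl-tRNA synthetase (putative), Leishmania donovani (UniProt E9BF75). The test concentration is not given. Values are per cent inhibition. Of about 68,000 compounds tested this way, about 24 (0.035%) reached 50% or more in at least one test.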

All values are in %. The record does not define 0% and 100%; most values in the screen are far below 50% and negative numbers occur (in some assays of this library far below -100). This is an unselected part of the compounds tested.

* Cc1cc(C)c(CNC(=O)C2CCN(c3cnccn3)CC2)c(=O)[nH]1 : Mtb heat-shock: -2.965%; LdMetRS: 15.79%
* CCNC(=O)CN(CC)S(=O)(=O)c1c(Br)cc2[nH]c(=O)oc2c1Cl : Mtb heat-shock: -15.46%; LdMetRS: 13.42%
* CC(C)N1Cc2c(C(=O)N3CCN(C)CC3)nn(C)c2C1 : Mtb heat-shock: -0.9028%; Mtb growth Cornell: -1.611%; LdMetRS: 12.4%
* Cn1ncc2c1NC(=O)CC2c1cc(Cl)ccc1F (centres unmarked) : Mtb heat-shock: -20.48%; Mtb growth Cornell: 13.85%; LdMetRS: 5.099%
* CN1CCN(C2CCN(CCOc3ccccc3)CC2)C1=O : Mtb heat-shock: -16%; Mtb growth Cornell: -14.24%; LdMetRS: 15.1%
* COCC1CN(C(=O)COc2ccccc2C)Cc2ncn(C)c21.O=C(O)C(F)(F)F (centres unmarked) : Mtb heat-shock: -19.39%; Mtb growth Cornell: 23.31%
* Cc1cc(C)c(C(=O)NC2CCN(c3ncccc3C#N)CC2)c(=O)[nH]1 : Mtb heat-shock: -9.019%; LdMetRS: 11.18%
* O=C(Cc1cccnc1)N1CCCC(c2cc(C(F)(F)F)[nH]n2)C1 (centres unmarked) : Mtb heat-shock: -23.64%; LdMetRS: 20.21%
* Cc1ccc(CN2CC3(CCN(C(=O)Cc4ccc(Cl)cc4)C3)C2)o1 : Mtb heat-shock: -5.434%; LdMetRS: 14.21%
* O=C(c1ccoc1)N1CCC2(CCC(=O)N2Cc2ccncc2)CC1 : LdMetRS: 14.19%
* CS(=O)(=O)NCc1cc(=O)n2c(n1)CN(CC1CC1)CCC2 : LdMetRS: 15.84%
* Cc1ccc(C(C)C(=O)N2CCCN(Cc3cscn3)CC2)cc1 (centres unmarked) : Mtb heat-shock: 9.939%; LdMetRS: 23.68%
* Cc1noc(CN(C)CC(c2cccs2)N2CCOCC2)n1 (centres unmarked) : Mtb heat-shock: -8.499%; LdMetRS: 23.46%
* CN(C)c1cc(C2CCCN(S(=O)(=O)c3cn[nH]c3)C2)ccn1 (centres unmarked) : Mtb heat-shock: 25.59%; Mtb growth Cornell: 3.381%; LdMetRS: 3.226%
* COCCCNC(=O)C1CCN(CC2(O)CCC(C)CC2)CC1 (centres unmarked) : Mtb heat-shock: 2.695%; Mtb growth Cornell: -6.932%; LdMetRS: 7.971%
* CC(C)N1CCC(Cc2cncc(-c3cccc(C(=O)O)c3)n2)CC1 : Mtb heat-shock: -28.59%; Mtb growth Cornell: -33.1%; LdMetRS: 2.26%
* CC(C)=CCN1CC2(CCN(Cc3ncc[nH]3)CC2)CC1=O : Mtb heat-shock: -5.208%; Mtb growth Cornell: -31.34%; LdMetRS: 0%
* COc1ccc(C(=O)N2CCC(Nc3cccnn3)CC2)c(F)c1 : Mtb heat-shock: -12.12%; Mtb growth Cornell: 7.558%; LdMetRS: 23.78%
* CO[C@H]1CN(S(=O)(=O)c2ccc(C)cc2)C[C@@]12CCCO2 : Mtb heat-shock: -17.28%; Mtb growth Cornell: -0.2671%; LdMetRS: 20.25%
* c1cnc(NCc2cncc3c2CCN(Cc2ccsc2)C3)nc1 : LdMetRS: 9.841%
* CNCc1ccc([C@@H]2CN(C(C)=O)C[C@H]2C(N)=O)cc1 : LdMetRS: 14.33%
* Cc1nnc(SCCC(=O)N(C)Cc2c(F)cccc2Cl)[nH]1 : Mtb heat-shock: -10.54%; LdMetRS: 10.96%
* Cc1ccc(Oc2cc(F)ccc2O[C@@H]2CCC[C@@H](N)[C@H]2O)cc1 : Mtb heat-shock: 103.2%; Mtb growth Cornell: 30.66%; LdMetRS: 16.08%
* O=C(O)C(F)(F)F.[H][C@]12CCN(CC(C)C)CC[C@@]1([H])S(=O)(=O)CCN2C(C)=O : Mtb heat-shock: -29.56%; Mtb growth Cornell: -24.29%
* COCCN1C[C@@H]2[C@@H](OC)CCN(S(=O)(=O)c3cccnc3)[C@@H]2C1 : LdMetRS: 16.92%
* c1ccc(CN2CCc3c(CNc4nccs4)n[nH]c3C2)nc1 : LdMetRS: 4.899%
* Cc1nc2ccccc2n1Cc1cc(C(=O)N(C)C2CCOC2)n[nH]1 (centres unmarked) : Mtb heat-shock: -12.55%; Mtb growth Cornell: -26.38%; LdMetRS: 10.75%
* O=C(c1c2c(NCC3CC3)ncnc2n2ccccc12)N1CCOCC1 : Mtb heat-shock: -10.32%; Mtb growth Cornell: 0.9369%; LdMetRS: 8.759%
* CCC(CNC(=O)CCn1cncn1)N1CCc2ccccc2C1 (centres unmarked) : Mtb heat-shock: -19.5%; Mtb growth Cornell: -15.35%; LdMetRS: 1.412%
* O=C(CCNC(=O)c1ccoc1)Nc1cc(F)ccc1F : Mtb heat-shock: 22.6%; Mtb growth Cornell: -0.7852%; LdMetRS: 14.09%
* Cc1ccc(CN2C[C@@H]3C[C@H](C(=O)NCC4CC4)N(C)[C@@H]3C2)o1 : LdMetRS: 4.808%
* Cc1nccn1CCCn1cncc1-c1ccc2c(c1)CCC(C)N2C.Cl (centres unmarked) : Mtb heat-shock: 8.681%; Mtb growth Cornell: 54.25%
* OCCn1nccc1C1CCN(Cc2nc(C3CC3)no2)CC1 : Mtb heat-shock: -0.757%; LdMetRS: 11.45%
* [H][C@]12CC[C@@]3(N=C(CC)N(CC(C)C)C3=O)[C@@]1([H])CN(C(=O)NCC(C)C)C2 : Mtb heat-shock: 1.071%; Mtb growth Cornell: 33.38%
* CC(C)n1cc(C(=O)NCCCn2ccnc2)c2n[nH]c(=O)c-2c1 : Mtb heat-shock: 1.482%; Mtb growth Cornell: 1.757%; LdMetRS: 18.16%
* CN1C(=O)c2cccc(NC(=O)c3cccc(S(C)(=O)=O)c3)c2C1=O : Mtb heat-shock: 8.47%; Mtb growth Cornell: 29.28%; LdMetRS: 9.832%
* Cc1nc[nH]c1CN1CCCC(CNC(=O)c2ccc(N)nc2)C1 (centres unmarked) : Mtb heat-shock: -20.38%; Mtb growth Cornell: 21.2%; LdMetRS: 3.377%
* O=C1C[C@H]2[C@@H](CCN2C(=O)c2cscn2)N1Cc1cccnc1 : LdMetRS: 12.89%
* [H][C@]12CCC[C@@]1(COCC1CCOCC1)CN(C(=O)c1cccs1)C2 : Mtb heat-shock: -30.12%; Mtb growth Cornell: -21.43%

Repeated from the top, 2 entries:

{"smiles": "Cc1cc(C)c(CNC(=O)C2CCN(c3cnccn3)CC2)c(=O)[nH]1", "Mtb heat-shock": -2.965, "LdMetRS": 15.79}
{"smiles": "CCNC(=O)CN(CC)S(=O)(=O)c1c(Br)cc2[nH]c(=O)oc2c1Cl", "Mtb heat-shock": -15.46, "LdMetRS": 13.42}